According to patent US20250312345A1, “NON-COVALENT INHIBITORS OF THE MAIN PROTEASE OF SARS-COV-2 AND METHODS OF USE” (YALE UNIVERSITY, priority 2022, published 2025):
Some results were stated once for a whole list of compounds, not compound by compound.

Test: PAMPA assay
Conditions: PBS pH 7.4, 5% DMSO, 18 hours, room temperature

Compound | PAMPA permeability
Cc1ocnc1COc1cc(Cl)cc(-c2cc(-c3ccccc3C#N)cn(-c3cccnc3)c2=O)c1 [compound 50] | > 3 10^−6 cm/s
O=c1[nH]cc(-c2cc(-c3cc(Cl)cc(OCc4ocnc4C(F)(F)F)c3)c(=O)n(-c3cccnc3)c2)c(=O)[nH]1 [compound 62] | < 0.8 10^−6 cm/s
O=c1[nH]cc(-c2cc(-c3cc(Cl)c(F)c(OCc4ccccc4Cl)c3)c(=O)n(-c3cccnc3)c2)c(=O)[nH]1 [compound 43] | < 0.8 10^−6 cm/s
N#Cc1ccccc1-c1cc(-c2cc(Cl)cc(OCC3CC3)c2)c(=O)n(-c2cccnc2)c1 [Compound 39, 2-(3-(3-Chloro-5-(cyclopropylmethoxy)phenyl)-2-oxo-2H-[1,3′-bipyridin]-5-yl)benzonitrile] | > 3 10^−6 cm/s
